Test results reported in the supplement of paper PMC7661543.
Differences between knockout arms are mostly noise.

Test system: HCC-38
Assay: relative cell number vs DMSO control (72 h) (% of DMSO); higher = less growth inhibition (more cells)
Protocol: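 QMAP-Seq: a pool of 5 breast cancer cell lines (ZR-75-1, SKBR3, HCC-38, MDA-MB-231, BT-20), each carrying 12 doxycycline-inducible Cas9 sgRNA perturbations (11 knockouts plus non-targeting sgNT), was treated with compounds for 72 h at four 10-fold doses (10 nM-10 uM or 1 nM-1 uM range). Barcodes were amplified and sequenced, and cell number was interpolated from 293T spike-in standard curves. The result is expressed as % of the median of DMSO wells. Two biological replicates.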

CCC(C)(C)C(=O)O[C@H]1C[C@@H](C)C=C2C=C[C@H](C)[C@H](CC[C@@H]3C[C@@H](O)CC(=O)O3)[C@H]21 [Simvastatin]
Details | relative cell number
sgRNA knockout: sgATF3, 10 nM | 93.1
sgRNA knockout: sgATF3, 100 nM | 101
sgRNA knockout: sgATF3, 1000 nM | 98.9
sgRNA knockout: sgATF3, 10000 nM | 95.5
sgRNA knockout: sgATF4, 10 nM | 89.9
sgRNA knockout: sgATF4, 100 nM | 95
sgRNA knockout: sgATF4, 1000 nM | 106
sgRNA knockout: sgATF4, 10000 nM | 85.6
sgRNA knockout: sgATF6, 10 nM | 98.2
sgRNA knockout: sgATF6, 100 nM | 90.4
sgRNA knockout: sgATF6, 1000 nM | 99
sgRNA knockout: sgATF6, 10000 nM | 86
sgRNA knockout: sgATG7, 10 nM | 90
sgRNA knockout: sgATG7, 100 nM | 99.8
sgRNA knockout: sgATG7, 1000 nM | 94.8
sgRNA knockout: sgATG7, 10000 nM | 81.3
sgRNA knockout: sgERN1, 10 nM | 91.9
sgRNA knockout: sgERN1, 100 nM | 102
sgRNA knockout: sgERN1, 1000 nM | 96.22
sgRNA knockout: sgERN1, 10000 nM | 95.5
sgRNA knockout: sgHSF1, 10 nM | 93.8
sgRNA knockout: sgHSF1, 100 nM | 79.3
sgRNA knockout: sgHSF1, 1000 nM | 95.6
sgRNA knockout: sgHSF1, 10000 nM | 117
sgRNA knockout: sgHSF2, 10 nM | 103
sgRNA knockout: sgHSF2, 100 nM | 87.5
sgRNA knockout: sgHSF2, 1000 nM | 97
sgRNA knockout: sgHSF2, 10000 nM | 88.6
sgRNA knockout: sgKEAP1, 10 nM | 99.8
sgRNA knockout: sgKEAP1, 100 nM | 95.6
sgRNA knockout: sgKEAP1, 1000 nM | 81.4
sgRNA knockout: sgKEAP1, 10000 nM | 98.2
sgRNA knockout: sgNFE2L2, 10 nM | 80
sgRNA knockout: sgNFE2L2, 100 nM | 83.9
sgRNA knockout: sgNFE2L2, 1000 nM | 94.4
sgRNA knockout: sgNFE2L2, 10000 nM | 78.3
sgRNA knockout: sgSLC35F2, 10 nM | 97.1
sgRNA knockout: sgSLC35F2, 100 nM | 94
sgRNA knockout: sgSLC35F2, 1000 nM | 96.8
sgRNA knockout: sgSLC35F2, 10000 nM | 95.1
sgRNA knockout: sgXBP1, 10 nM | 85.28
sgRNA knockout: sgXBP1, 100 nM | 94.6
sgRNA knockout: sgXBP1, 1000 nM | 106.5
sgRNA knockout: sgXBP1, 10000 nM | 83.3

CC(C)n1cnc2c(NCCc3ccc(O)cc3)nc(-c3csc4ccccc34)nc21 [StemRegenin1]
Details | relative cell number
sgRNA knockout: sgATF3, 10 nM | 93.5
sgRNA knockout: sgATF3, 100 nM | 112
sgRNA knockout: sgATF3, 1000 nM | 105
sgRNA knockout: sgATF3, 10000 nM | 86.7
sgRNA knockout: sgATF4, 10 nM | 89.8
sgRNA knockout: sgATF4, 100 nM | 109
sgRNA knockout: sgATF4, 1000 nM | 101
sgRNA knockout: sgATF4, 10000 nM | 82.1
sgRNA knockout: sgATF6, 10 nM | 108
sgRNA knockout: sgATF6, 100 nM | 115.89
sgRNA knockout: sgATF6, 1000 nM | 97.5
sgRNA knockout: sgATF6, 10000 nM | 95.6
sgRNA knockout: sgATG7, 10 nM | 97.8
sgRNA knockout: sgATG7, 100 nM | 103
sgRNA knockout: sgATG7, 1000 nM | 98.4
sgRNA knockout: sgATG7, 10000 nM | 85.9
sgRNA knockout: sgERN1, 10 nM | 79.4
sgRNA knockout: sgERN1, 100 nM | 110
sgRNA knockout: sgERN1, 1000 nM | 102
sgRNA knockout: sgERN1, 10000 nM | 88.1
sgRNA knockout: sgHSF1, 10 nM | 92.1
sgRNA knockout: sgHSF1, 100 nM | 119
sgRNA knockout: sgHSF1, 1000 nM | 101
sgRNA knockout: sgHSF1, 10000 nM | 92.7
sgRNA knockout: sgHSF2, 10 nM | 89.5
sgRNA knockout: sgHSF2, 100 nM | 131
sgRNA knockout: sgHSF2, 1000 nM | 101.8
sgRNA knockout: sgHSF2, 10000 nM | 83.4
sgRNA knockout: sgKEAP1, 10 nM | 92.1
sgRNA knockout: sgKEAP1, 100 nM | 156
sgRNA knockout: sgKEAP1, 1000 nM | 96.3
sgRNA knockout: sgKEAP1, 10000 nM | 97.6
sgRNA knockout: sgNFE2L2, 10 nM | 86.9
sgRNA knockout: sgNFE2L2, 100 nM | 105
sgRNA knockout: sgNFE2L2, 1000 nM | 105
sgRNA knockout: sgNFE2L2, 10000 nM | 91.7
sgRNA knockout: sgSLC35F2, 10 nM | 89.9
sgRNA knockout: sgSLC35F2, 100 nM | 106
sgRNA knockout: sgSLC35F2, 1000 nM | 92.5
sgRNA knockout: sgSLC35F2, 10000 nM | 91.1
sgRNA knockout: sgXBP1, 10 nM | 86.2
sgRNA knockout: sgXBP1, 100 nM | 106
sgRNA knockout: sgXBP1, 1000 nM | 101
sgRNA knockout: sgXBP1, 10000 nM | 94.3

O=C1NC(=O)[C@@H](c2cn3c4c(cccc24)CCC3)[C@@H]1c1c[nH]c2ccccc12 [Tivantinib]
Details | relative cell number
sgRNA knockout: sgATF3, 10 nM | 94.6
sgRNA knockout: sgATF3, 100 nM | 84.4
sgRNA knockout: sgATF3, 1000 nM | 37.9
sgRNA knockout: sgATF3, 10000 nM | 29.2
sgRNA knockout: sgATF4, 10 nM | 87.6
sgRNA knockout: sgATF4, 100 nM | 83.1
sgRNA knockout: sgATF4, 1000 nM | 37.8
sgRNA knockout: sgATF4, 10000 nM | 23.9
sgRNA knockout: sgATF6, 10 nM | 112
sgRNA knockout: sgATF6, 100 nM | 89.7
sgRNA knockout: sgATF6, 1000 nM | 40
sgRNA knockout: sgATF6, 10000 nM | 23.4
sgRNA knockout: sgATG7, 10 nM | 90.1
sgRNA knockout: sgATG7, 100 nM | 85.1
sgRNA knockout: sgATG7, 1000 nM | 40.3
sgRNA knockout: sgATG7, 10000 nM | 32.2
sgRNA knockout: sgERN1, 10 nM | 91.8
sgRNA knockout: sgERN1, 100 nM | 85.6
sgRNA knockout: sgERN1, 1000 nM | 39.9
sgRNA knockout: sgERN1, 10000 nM | 25.8
sgRNA knockout: sgHSF1, 10 nM | 93.2
sgRNA knockout: sgHSF1, 100 nM | 98.7
sgRNA knockout: sgHSF1, 1000 nM | 32.5
sgRNA knockout: sgHSF1, 10000 nM | 25.6
sgRNA knockout: sgHSF2, 10 nM | 95.7
sgRNA knockout: sgHSF2, 100 nM | 93.5
sgRNA knockout: sgHSF2, 1000 nM | 41
sgRNA knockout: sgHSF2, 10000 nM | 24.8
sgRNA knockout: sgKEAP1, 10 nM | 109
sgRNA knockout: sgKEAP1, 100 nM | 92.8
sgRNA knockout: sgKEAP1, 1000 nM | 38.2
sgRNA knockout: sgKEAP1, 10000 nM | 26.9
sgRNA knockout: sgNFE2L2, 10 nM | 88.7
sgRNA knockout: sgNFE2L2, 100 nM | 85.2
sgRNA knockout: sgNFE2L2, 1000 nM | 37
sgRNA knockout: sgNFE2L2, 10000 nM | 24.1
sgRNA knockout: sgSLC35F2, 10 nM | 83.9
sgRNA knockout: sgSLC35F2, 100 nM | 84.6
sgRNA knockout: sgSLC35F2, 1000 nM | 40.5
sgRNA knockout: sgSLC35F2, 10000 nM | 25.8
sgRNA knockout: sgXBP1, 10 nM | 86.4
sgRNA knockout: sgXBP1, 100 nM | 84.3
sgRNA knockout: sgXBP1, 1000 nM | 40.1
sgRNA knockout: sgXBP1, 10000 nM | 29.6

CC[C@]1(O)C[C@H]2CN(CCc3c([nH]c4ccccc34)[C@@](C(=O)OC)(c3cc4c(cc3OC)N(C=O)[C@H]3[C@@](O)(C(=O)OC)[C@H](OC(C)=O)[C@]5(CC)C=CCN6CC[C@]43[C@@H]65)C2)C1 [Vincristine]
Details | relative cell number
sgRNA knockout: sgATF3, 10 nM | 22.5
sgRNA knockout: sgATF3, 100 nM | 19.5
sgRNA knockout: sgATF3, 1000 nM | 22.6
sgRNA knockout: sgATF3, 10000 nM | 21.9
sgRNA knockout: sgATF4, 10 nM | 18.1
sgRNA knockout: sgATF4, 100 nM | 19.9
sgRNA knockout: sgATF4, 1000 nM | 20.7
sgRNA knockout: sgATF4, 10000 nM | 22.9
sgRNA knockout: sgATF6, 10 nM | 20.04
sgRNA knockout: sgATF6, 100 nM | 22.4
sgRNA knockout: sgATF6, 1000 nM | 16.6
sgRNA knockout: sgATF6, 10000 nM | 21.4
sgRNA knockout: sgATG7, 10 nM | 22.9
sgRNA knockout: sgATG7, 100 nM | 24.3
sgRNA knockout: sgATG7, 1000 nM | 23.2
sgRNA knockout: sgATG7, 10000 nM | 22.6
sgRNA knockout: sgERN1, 10 nM | 24.9
sgRNA knockout: sgERN1, 100 nM | 23.3
sgRNA knockout: sgERN1, 1000 nM | 23.38
sgRNA knockout: sgERN1, 10000 nM | 19.7
sgRNA knockout: sgHSF1, 10 nM | 25.9
sgRNA knockout: sgHSF1, 100 nM | 26
sgRNA knockout: sgHSF1, 1000 nM | 25.6
sgRNA knockout: sgHSF1, 10000 nM | 34.1
sgRNA knockout: sgHSF2, 10 nM | 20.6
sgRNA knockout: sgHSF2, 100 nM | 23.5
sgRNA knockout: sgHSF2, 1000 nM | 26.3
sgRNA knockout: sgHSF2, 10000 nM | 24.9
sgRNA knockout: sgKEAP1, 10 nM | 24.8
sgRNA knockout: sgKEAP1, 100 nM | 23.1
sgRNA knockout: sgKEAP1, 1000 nM | 29.8
sgRNA knockout: sgKEAP1, 10000 nM | 24.09
sgRNA knockout: sgNFE2L2, 10 nM | 19.8
sgRNA knockout: sgNFE2L2, 100 nM | 17.5
sgRNA knockout: sgNFE2L2, 1000 nM | 17.2
sgRNA knockout: sgNFE2L2, 10000 nM | 23.2
sgRNA knockout: sgSLC35F2, 10 nM | 26.2
sgRNA knockout: sgSLC35F2, 100 nM | 19.55
sgRNA knockout: sgSLC35F2, 1000 nM | 20.1
sgRNA knockout: sgSLC35F2, 10000 nM | 21.4
sgRNA knockout: sgXBP1, 10 nM | 19.33
sgRNA knockout: sgXBP1, 100 nM | 25
sgRNA knockout: sgXBP1, 1000 nM | 26
sgRNA knockout: sgXBP1, 10000 nM | 26.9
